Binding data for two molecules are collected here from publication PMC10394025.

No constants are given. Whether binding was seen depends on the method and setting. Binding seen in cells or lysates may run through a third protein. Here binding means that the protein was enriched with, or labelled near, the bait; the list need not be complete. Tags and fused reporters may be left off the sequences shown.

The experiment has as its target T1, USP15 immunoprecipitated with a FLAG antibody from AML12 cells (bait of the interactome analysis) (UniProt Q8R5H1).
T1 sequence: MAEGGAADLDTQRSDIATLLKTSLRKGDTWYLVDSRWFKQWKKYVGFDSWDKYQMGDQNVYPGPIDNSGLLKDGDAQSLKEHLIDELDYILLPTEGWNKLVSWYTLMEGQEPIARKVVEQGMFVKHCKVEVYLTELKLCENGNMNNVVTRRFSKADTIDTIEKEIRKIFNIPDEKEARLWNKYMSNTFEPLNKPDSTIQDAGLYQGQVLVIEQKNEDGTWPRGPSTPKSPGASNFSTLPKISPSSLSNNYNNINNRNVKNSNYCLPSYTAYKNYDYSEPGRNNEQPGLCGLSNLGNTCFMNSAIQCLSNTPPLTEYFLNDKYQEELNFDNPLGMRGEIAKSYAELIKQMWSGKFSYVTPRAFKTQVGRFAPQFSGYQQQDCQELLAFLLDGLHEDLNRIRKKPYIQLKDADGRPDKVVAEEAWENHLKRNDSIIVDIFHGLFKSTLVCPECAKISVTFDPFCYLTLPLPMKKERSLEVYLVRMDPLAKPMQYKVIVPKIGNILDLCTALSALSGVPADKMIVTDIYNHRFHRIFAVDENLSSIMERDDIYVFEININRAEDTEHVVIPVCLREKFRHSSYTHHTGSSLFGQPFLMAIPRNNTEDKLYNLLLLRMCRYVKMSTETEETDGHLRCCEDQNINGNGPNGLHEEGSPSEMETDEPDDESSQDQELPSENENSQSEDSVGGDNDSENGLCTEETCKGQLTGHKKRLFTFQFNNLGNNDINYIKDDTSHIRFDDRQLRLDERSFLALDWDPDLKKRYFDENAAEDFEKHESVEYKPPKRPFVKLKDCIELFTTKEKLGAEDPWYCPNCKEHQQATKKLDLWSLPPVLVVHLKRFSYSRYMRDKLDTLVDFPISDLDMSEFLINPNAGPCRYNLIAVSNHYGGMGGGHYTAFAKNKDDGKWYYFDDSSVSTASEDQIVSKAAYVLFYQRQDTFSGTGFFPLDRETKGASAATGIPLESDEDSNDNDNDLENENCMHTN
Put plainly: affinity purification with mass spectrometry; USP15 immunoprecipitation (FLAG antibody) from AML12 cells; eluates separated by SDS-PAGE, in-gel digestion, LC-MS/MS.

B1: FABP4 (endogenous, AML12 cells) (protein, UniProt P04117 1-132)
chain: MCDAFVGTWKLVSSENFDDYMKEVGVGFATRKVAGMAKPNMIISVNGDLVTIRSESTFKNTEISFKLGVEFDEITADDRKVKSIITLDGGALVQVQKWDGKSTTIKRKRDGDKLVVECVMKGVTSTRVYERA
On to B1, for which the binding entry was “binds”.

B2: Perilipin2 (endogenous, AML12 cells) (protein, UniProt P43883 1-425)
chain: MAAAVVDPQQSVVMRVANLPLVSSTYDLVSSAYVSTKDQYPYLRSVCEMAEKGVKTVTSAAMTSALPIIQKLEPQIAVANTYACKGLDRMEERLPILNQPTSEIVASARGAVTGAKDVVTTTMAGAKDSVASTVSGVVDKTKGAVTGSVERTKSVVNGSINTVLGMVQFMNSGVDNAITKSELLVDQYFPLTQEELEMEAKKVEGFDMVQKPSNYERLESLSTKLCSRAYHQALSRVKEAKQKSQETISQLHSTVHLIEFARKNMHSANQKIQGAQDKLYVSWVEWKRSIGYDDTDESHCVEHIESRTLAIARNLTQQLQTTCQTVLVNAQGLPQNIQDQAKHLGVMAGDIYSVFRNAASFKEVSDGVLTSSKGQLQKMKESLDEVMDYFVNNTPLNWLVGPFYPQSTEVNKASLKVQQSEVKAQ
Consider B2, for which the binding entry was “binds”.
